HELM strings list residues between dots; [ac] is acetyl, [am] amide, other brackets name non-standard units. Starred links: 1 amine or outer side, 2 acyl side, 3 side chain; linkers in the order of their positions; H or OH if unused. Non-standard residues stand in square brackets, D forms with d. *: point of attachment. N(1S-cyclohexylethyl)Gly = C[C@H](NCC(=O)O)C1CCCCC1; Acetyl(2-(piperazin-1-yl)) = O=C(CN1CCNCC1)*; X4 = O=C(CN1CCCN([*:1])CC1)[*:2]; Nspe = C[C@H](NCC(=O)O)c1ccccc1; X1 = O=C(CN1CCN([*:1])CC1)[*:2]; X5 = NC(=O)CN1CCN(*)CC1; X3 = O=C(CN1CCCNCC1)*
Assay: general procedure: Fmoc solid-phase peptide synthesis; Rink amide resin (Novabiochem); Knorr Rink amide (RAM) resin for azapeptoids; bromoacetic acid / diisopropylcarbodiimide (submonomer approach)
Details: whole synthesis, reversed-phase HPLC, analytical C18, UV-2075 (Jasco), scale of the general procedure 100 mg of resin

| Substance | crude HPLC purity [%] |
| --- | --- |
| H-[Nspe][Nspe][Nspe][Nspe][Nspe][Nspe]-NH2 (SMILES C[C@H](NCC(=O)N(CC(=O)N(CC(=O)N(CC(=O)N(CC(=O)N(CC(N)=O)[C@@H](C)c1ccccc1)[C@@H](C)c1ccccc1)[C@@H](C)c1ccccc1)[C@@H](C)c1ccccc1)[C@@H](C)c1ccccc1)c1ccccc1) | 99 |
| H-[Nspe][Nspe][Nspe][Nspe][Nspe][Nspe]-X5 (SMILES C[C@H](NCC(=O)N(CC(=O)N(CC(=O)N(CC(=O)N(CC(=O)N(CC(=O)N1CCN(CC(N)=O)CC1)[C@@H](C)c1ccccc1)[C@@H](C)c1ccccc1)[C@@H](C)c1ccccc1)[C@@H](C)c1ccccc1)[C@@H](C)c1ccccc1)c1ccccc1) | 81 |
| Npl-(Nspe)6-Npz | 70 |
| Npz-(Npm)2-Nsch-Ncpe-Nsch-Nfpm | 70 |
| Npz-Nspe-Ntrp-(Nspe)2-Nhq-Nspe | 72 |
| Nspe-Ntrp-(Nspe)2-Nhq-Nspe-Npz | 80 |
| PEPTIDE1{[Nhpz].[Ns1npe].[Ns1npe].[Ns1npe].[Ns1npe].[am]}$$$$V2.0 | 81 |
| PEPTIDE1{[Nhpz].[Nsch].[Nsch].[Nsch].[Nsch].[Nsch].[am]}$$$$V2.0 | 76 |
| PEPTIDE1{[Npz].[Npz].[Npz].[Ns1npe].[Ns1npe].[Ns1npe].[Ns1npe].[am]}$$$$V2.0 | 72 |
| PEPTIDE1{[Npz].[Npz].[Ns1npe].[Ns1npe].[Ns1npe].[Ns1npe].[am]}$$$$V2.0 | 78 |
| PEPTIDE1{[Npz].[Ns1npe].[Ns1npe].[Ns1npe].[Ns1npe].[am]}$$$$V2.0 | 82 |
| PEPTIDE1{[Npz].[Nsch].[Nsch].[Nsch].[Nsch].[Nsch].[am]}$$$$V2.0 | 75 |
| PEPTIDE1{[Npz].[Nspe].[Nspe].[Nspe].[Nspe].[Nspe].[Nspe].[NplC].[am]}$PEPTIDE1,PEPTIDE1,1:R1-8:R3$$$V2.0 | 40 |
| PEPTIDE1{[Ns1npe].[Ns1npe].[Ns1npe].[Ns1npe].[Npz].[am]}$$$$V2.0 | 80 |
| PEPTIDE1{[Ns1npe].[Ns1npe].[Ns1npe].[Ns1npe].[am]}$$$$V2.0 | 99 |
| X3-[Nspe][Nspe][Nspe][Nspe][Nspe][Nspe]-NH2 (SMILES C[C@@H](c1ccccc1)N(CC(N)=O)C(=O)CN(C(=O)CN(C(=O)CN(C(=O)CN(C(=O)CN(C(=O)CN1CCCNCC1)[C@@H](C)c1ccccc1)[C@@H](C)c1ccccc1)[C@@H](C)c1ccccc1)[C@@H](C)c1ccccc1)[C@@H](C)c1ccccc1) | 85 |
| X3-[X4][Nspe][Nspe][Nspe][Nspe][Nspe][Nspe]-NH2 (SMILES C[C@@H](c1ccccc1)N(CC(N)=O)C(=O)CN(C(=O)CN(C(=O)CN(C(=O)CN(C(=O)CN(C(=O)CN1CCCN(C(=O)CN2CCCNCC2)CC1)[C@@H](C)c1ccccc1)[C@@H](C)c1ccccc1)[C@@H](C)c1ccccc1)[C@@H](C)c1ccccc1)[C@@H](C)c1ccccc1) | 82 |
| {Acetyl(2-(piperazin-1-yl))}-[Nspe][Nspe][Nspe][Nspe][Nspe][Nspe]-NH2 (SMILES C[C@@H](c1ccccc1)N(CC(N)=O)C(=O)CN(C(=O)CN(C(=O)CN(C(=O)CN(C(=O)CN(C(=O)CN1CCNCC1)[C@@H](C)c1ccccc1)[C@@H](C)c1ccccc1)[C@@H](C)c1ccccc1)[C@@H](C)c1ccccc1)[C@@H](C)c1ccccc1) | 85 |
| {Acetyl(2-(piperazin-1-yl))}-[X1][N(1S-cyclohexylethyl)Gly][N(1S-cyclohexylethyl)Gly][N(1S-cyclohexylethyl)Gly][N(1S-cyclohexylethyl)Gly][N(1S-cyclohexylethyl)Gly]-NH2 (SMILES C[C@@H](C1CCCCC1)N(CC(N)=O)C(=O)CN(C(=O)CN(C(=O)CN(C(=O)CN(C(=O)CN1CCN(C(=O)CN2CCNCC2)CC1)[C@@H](C)C1CCCCC1)[C@@H](C)C1CCCCC1)[C@@H](C)C1CCCCC1)[C@@H](C)C1CCCCC1) | 72 |
| {Acetyl(2-(piperazin-1-yl))}-[X1][Nspe][Nspe][Nspe][Nspe][Nspe][Nspe]-NH2 (SMILES C[C@@H](c1ccccc1)N(CC(N)=O)C(=O)CN(C(=O)CN(C(=O)CN(C(=O)CN(C(=O)CN(C(=O)CN1CCN(C(=O)CN2CCNCC2)CC1)[C@@H](C)c1ccccc1)[C@@H](C)c1ccccc1)[C@@H](C)c1ccccc1)[C@@H](C)c1ccccc1)[C@@H](C)c1ccccc1) | 82 |
| {Acetyl(2-(piperazin-1-yl))}-[X1][X1][N(1S-cyclohexylethyl)Gly][N(1S-cyclohexylethyl)Gly][N(1S-cyclohexylethyl)Gly][N(1S-cyclohexylethyl)Gly][N(1S-cyclohexylethyl)Gly]-NH2 (SMILES C[C@@H](C1CCCCC1)N(CC(N)=O)C(=O)CN(C(=O)CN(C(=O)CN(C(=O)CN(C(=O)CN1CCN(C(=O)CN2CCN(C(=O)CN3CCNCC3)CC2)CC1)[C@@H](C)C1CCCCC1)[C@@H](C)C1CCCCC1)[C@@H](C)C1CCCCC1)[C@@H](C)C1CCCCC1) | 67 |
